Some entries share one result that the patent states for a list of compounds. Some ranges recur; such a range may be that of the whole group of compounds.
What follows are compounds tested on Z-138 xenograft (assay: In vivo efficacy, Z-138 xenograft mouse model). Details: mice, 1 mg/kg dose, oral twice a day, after 38 days, one range for three compounds.
Set-up: species or system female NOD.CB17-Prkdc<scid>/J mice
Procedure: In Vivo Efficacy Experiments Tumor xenograft for mantle cell lymphoma was established by injection of cells into the right flank of female NOD.CB17-Prkdc/J mice with an age between 7-11 weeks purchased from The Jackson Laboratory, USA. All animal study proposals were reviewed and approved by the Institutional Animal Ethics Committee (IAEC) prior to initiation of experimentation. Z-138 Xenograft For Z-138 xenograft mouse model, Z-138 cells (ATCC® CRL-3001™) were grown in IMDM medium supplemented with 10% FBS. Cells were incubated under standard conditions at 37° C. and 5% CO2. For generating tumors, Z-138 cells in IMDM medium were mixed with Matrigel (Corning® Matrigel® Basement Membrane Matrix) in a ratio of 1:1. 10×10^6 cells) in a volume of 200 μL were injected subcutaneously in each mouse to establish tumors. Mice were randomized into treatment groups of 8-10 mice, once tumors reached an average volume between 100 to 120 mm^3. Treatment was initiated on day of randomization and continued until end of the study. The Vehicle and test compound treatment groups were administered respective treatments orally, using gavage tubing, at an application volume of 10 mL/kg per mouse twice a day. Mice were housed in individually ventilated cages (IVC) at room temperature of 22+3° C., humidity 50+20% and 12/12 h light/dark cycle. All the experimental activities were carried-out inside the biosafety cabinets to ensure sterility.
Tumor size was measured with Digimatic Vernier caliper (Mitutoyo, Japan) when the tumors became palpable. Tumor volume (T. V.) is calculated by using the formula: Tumor volume (mm3)=(L×W2)/2 Where, L: Length of tumor, W: Width of tumor in millimeter Percent tumor growth inhibition (% TGI) is calculated using the formula: % TGI=[1−(Tf−Ti)/(Cf−Ci)]×100 Where, Tf and Ti, are the final and initial tumor volumes (test compound), and Cf and Ci are the final and initial mean tumor volumes (vehicle group), respectively. Percent tumor regression is calculated as: % TR:(Ti−Tf)/(Ti)×100 Where, Tf and Ti, are the final and initial tumor volumes, respectively.
With `Nc1nc2cc(CCC3=C[C@@H](n4ccc5c(N)ncnc54)[C@H](O)[C@@H]3O)cc(F)c2cc1Cl` [Compound-24, (1S,2R,5R)-3-(2-(2-amino-3-chloro-5-fluoroquinolin-7-yl)ethyl)-5-(4-amino-7H-pyrrolo[2,3-d]pyrimidin-7-yl)cyclopent-3-ene-1,2-diol] the tumor regression was 67-74%.
In the case of `CC(Cc1cc(F)c2cc(Cl)c(N)nc2c1)C1=C[C@@H](n2ccc3c(N)ncnc32)[C@H](O)[C@@H]1O` (single isomer, unassigned) [Compound-33b], the tumor regression is reported as 67-74%.
With `Cc1ncnc2c1ccn2[C@@H]1C=C(CCc2cc(F)c3cc(Cl)c(N)nc3c2)[C@@H](O)[C@H]1O` [Compound-13, (1S,2R,5R)-3-(2-(2-amino-3-chloro-5-fluoroquinolin-7-yl)ethyl)-5-(4-methyl-7H-pyrrolo[2,3-d]pyrimidin-7-yl)cyclopent-3-ene-1,2-diol] the tumor regression was 67-74%.

Source: patent publication US11459330B2, “Substituted bicyclic heterocyclic compounds as PRMT5 inhibitors” (LUPIN LIMITED, priority 2017, dated 2022)
